# This is one part of the list.
# Tested on: Madurella mycetomatis MM55
# Experimental: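 Kinase Chemogenomic Set (KCGS 2.0) screened against Madurella mycetomatis MM55 hyphal suspension in RPMI + L-glutamine + MOPS in 384-well plates, 4 days at 37°C, 5% CO2. CellTiter-Glo 3D luminescence gives metabolic activity as % of the DMSO growth control after subtracting the medium-only negative control. Screened at 1, 2 and 10 µM in two biological replicates (A/B); hits (>=80% reduction in both replicates) were also tested at 4 and 8 µM, and their IC50 was read visually from the dose curve, in duplicate.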
row,SMILES,IC50 growth inhibition
1,Nc1nccc(-c2c(-c3ccc(F)cc3)ncn2C2CCN(Cc3ccccc3)CC2)n1,5.79 µM
2,CNC(=O)c1nn(C)c2c1C(C)(C)Cc1cnc(Nc3ccc(N4CCOCC4)cc3OC)nc1-2,7.81 µM
3,Fc1ccc(-c2nn3ccccc3c2-c2ccncc2)cc1,3.84 µM
4,CCc1nc(-c2cccc(C)c2)c(-c2ccncc2)s1,4.79 µM
5,Cc1cccc(-c2nc3cnccn3c2-c2ccnc(NC3CCCCC3)n2)c1,7.89 µM
6,Cc1cccc(-c2nc(Nc3ccncc3)c3ccccc3n2)n1,7.9 µM

# Reference: the supplement of paper PMC12425257
